The values that follow come from paper PMC2063392.

Amino acid sequences for entries named in this document (tags omitted). Residues count along the entry.
UniProt P07288, residues 25-261: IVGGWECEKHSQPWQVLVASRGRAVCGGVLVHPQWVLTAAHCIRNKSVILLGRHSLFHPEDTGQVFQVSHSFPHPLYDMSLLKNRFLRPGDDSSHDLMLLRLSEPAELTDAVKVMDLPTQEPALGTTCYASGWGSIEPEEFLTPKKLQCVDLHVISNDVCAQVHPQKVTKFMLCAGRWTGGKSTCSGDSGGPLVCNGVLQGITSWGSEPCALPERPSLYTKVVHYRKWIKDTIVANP

These are yes or no findings as the source states them, for the method shown. Some entries that bind do so weakly or less than the wild type.

The target of the assay is T1, alpha1-anti-chymotrypsin (ACT) (UniProt P01011).
T1 sequence: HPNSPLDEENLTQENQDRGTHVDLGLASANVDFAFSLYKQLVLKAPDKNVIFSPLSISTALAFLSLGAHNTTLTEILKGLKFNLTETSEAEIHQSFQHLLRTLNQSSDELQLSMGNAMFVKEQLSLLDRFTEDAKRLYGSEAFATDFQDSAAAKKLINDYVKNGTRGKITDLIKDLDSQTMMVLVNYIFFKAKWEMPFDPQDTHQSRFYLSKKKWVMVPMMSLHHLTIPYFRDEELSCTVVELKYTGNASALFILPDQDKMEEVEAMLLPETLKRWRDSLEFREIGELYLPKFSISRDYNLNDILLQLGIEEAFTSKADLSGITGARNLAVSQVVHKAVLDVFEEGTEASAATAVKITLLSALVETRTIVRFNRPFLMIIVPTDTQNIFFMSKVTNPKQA
As to the kind of experiment: SEC; purified PSA incubated with ACT; complex purified on Sephacryl S-100 eluted with PBS pH 7.1; PSA immunoactivity of the fractions by PSA Delfia kit; peak fractions of approximately 100 kDa and approximately 30 kDa pooled; both purified. On the technique in general: In gel filtration, larger molecules generally elute earlier.

Turning to “prostate-specific antigen (PSA) (from UniProt P07288 25-261) (enzyme)”, the binding entry is “binds”.
